{"source": "PubChem BioAssay AID652243 (Drosophila RNAi Screening Center, 2013)", "aim": "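Knock-downs that decrease or increase androgen receptor reporter signal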 (primary screen)", "cells": "Drosophila S2R+ cells", "reagent": "long dsRNA against Drosophila genes", "time to read-out": "72 h (48 h, then 24 h hormone)", "treatment": "synthetic androgen R1881 at 10 nM for 24 h", "detection": "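Per-well raw luminescence of the androgen-driven firefly reporter and of the Renilla control, two replicates each, without normalisation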", "direction": "firefly reporter light: higher = more light from androgen-responsive reporter; Renilla control light: higher = more constitutive control signal (cell number, transfection)", "active means": "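Across duplicate plates, a knock-down whose log firefly/Renilla ratio shifted a set fold down or up from the GFP/LacZ control mean was a hit; the downward cut appears as both 1.5 and 3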", "meaning of the calls": "active = hit: reporter lowered or raised; inactive = no hit", "note": "The screen tested about 24,000 reagents; below is a random part of those with a known target gene and a result. Over the whole deposit, 246 (1%) were called active. 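Plates not normalised; calls are printed but the firefly/Renilla ratio behind them is not deposited; fold cut for lowering reported inconsistently.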 Raw values are not corrected between plates. A plus sign joins genes that one reagent is predicted to hit. No sequences are given here. Not stated in the record: the amount of reagent."}
{"target": "CG33255 (retired record) + CR42842 + hpRNA:CR32205 + 1 more", "PubChem SID": "SID104189409", "firefly reporter light, replicate 1": 1.54e5, "firefly reporter light, replicate 2": 1.88e5, "Renilla control light, replicate 1": 2.10e5, "Renilla control light, replicate 2": 1.84e5, "outcome": "inactive"}
{"target": "sov (GeneID 31615)", "PubChem SID": "SID104197722", "firefly reporter light, replicate 1": 1.33e5, "firefly reporter light, replicate 2": 88716, "Renilla control light, replicate 1": 1.04e6, "Renilla control light, replicate 2": 7.40e5, "outcome": "inactive"}
{"target": "sov (GeneID 31615)", "PubChem SID": "SID104203127", "firefly reporter light, replicate 1": 7.15e5, "firefly reporter light, replicate 2": 1.12e6, "Renilla control light, replicate 1": 7.63e5, "Renilla control light, replicate 2": 9.00e5, "outcome": "inactive"}
{"target": "jvl (GeneID 41788)", "PubChem SID": "SID104192845", "firefly reporter light, replicate 1": 45375, "firefly reporter light, replicate 2": 20345, "Renilla control light, replicate 1": 53354, "Renilla control light, replicate 2": 56823, "outcome": "inactive"}
{"target": "jvl (GeneID 41788)", "PubChem SID": "SID104195287", "firefly reporter light, replicate 1": 62259, "firefly reporter light, replicate 2": 1.19e5, "Renilla control light, replicate 1": 6.07e5, "Renilla control light, replicate 2": 8.93e5, "outcome": "inactive"}
{"target": "jvl (GeneID 41788)", "PubChem SID": "SID104205996", "firefly reporter light, replicate 1": 2.87e5, "firefly reporter light, replicate 2": 2.97e5, "Renilla control light, replicate 1": 7.54e5, "Renilla control light, replicate 2": 7.53e5, "outcome": "inactive"}
{"target": "jvl (GeneID 41788)", "PubChem SID": "SID104216247", "firefly reporter light, replicate 1": 8.16e5, "firefly reporter light, replicate 2": 8.83e5, "Renilla control light, replicate 1": 1.33e6, "Renilla control light, replicate 2": 1.30e6, "outcome": "inactive"}
{"target": "AnxB11 (GeneID 32612)", "PubChem SID": "SID104199123", "firefly reporter light, replicate 1": 50089, "firefly reporter light, replicate 2": 41922, "Renilla control light, replicate 1": 4.31e5, "Renilla control light, replicate 2": 4.44e5, "outcome": "inactive"}
{"target": "AnxB11 (GeneID 32612)", "PubChem SID": "SID104205023", "firefly reporter light, replicate 1": 1.35e5, "firefly reporter light, replicate 2": 1.07e5, "Renilla control light, replicate 1": 2.18e5, "Renilla control light, replicate 2": 1.34e5, "outcome": "inactive"}
{"target": "CG14693 (GeneID 41299)", "PubChem SID": "SID104194708", "firefly reporter light, replicate 1": 1.18e5, "firefly reporter light, replicate 2": 85281, "Renilla control light, replicate 1": 1.65e6, "Renilla control light, replicate 2": 2.46e6, "outcome": "inactive"}
{"target": "CG7564 (GeneID 39956)", "PubChem SID": "SID104190672", "firefly reporter light, replicate 1": 1.56e5, "firefly reporter light, replicate 2": 1.25e5, "Renilla control light, replicate 1": 2.29e6, "Renilla control light, replicate 2": 1.31e6, "outcome": "inactive"}
{"target": "CG7564 (GeneID 39956)", "PubChem SID": "SID104206769", "firefly reporter light, replicate 1": 4.04e5, "firefly reporter light, replicate 2": 7.33e5, "Renilla control light, replicate 1": 1.74e6, "Renilla control light, replicate 2": 2.13e6, "outcome": "inactive"}
{"target": "Ir60a (GeneID 37881)", "PubChem SID": "SID104184004", "firefly reporter light, replicate 1": 3.34e5, "firefly reporter light, replicate 2": 2.29e5, "Renilla control light, replicate 1": 2.02e6, "Renilla control light, replicate 2": 1.63e6, "outcome": "inactive"}
{"target": "CR30409 (GeneID 37696)", "PubChem SID": "SID104201634", "firefly reporter light, replicate 1": 8.66e5, "firefly reporter light, replicate 2": 7.80e5, "Renilla control light, replicate 1": 2.30e6, "Renilla control light, replicate 2": 1.67e6, "outcome": "inactive"}
{"target": "RpS23 (GeneID 36576)", "PubChem SID": "SID104186961", "firefly reporter light, replicate 1": 5.92e5, "firefly reporter light, replicate 2": 4.53e5, "Renilla control light, replicate 1": 1.56e6, "Renilla control light, replicate 2": 1.80e6, "outcome": "inactive"}
{"target": "RpS23 (GeneID 36576)", "PubChem SID": "SID104204857", "firefly reporter light, replicate 1": 2.01e5, "firefly reporter light, replicate 2": 1.80e5, "Renilla control light, replicate 1": 4.40e5, "Renilla control light, replicate 2": 4.14e5, "outcome": "inactive"}
{"target": "Hyccin (GeneID 37019)", "PubChem SID": "SID104186775", "firefly reporter light, replicate 1": 3.64e5, "firefly reporter light, replicate 2": 5.15e5, "Renilla control light, replicate 1": 7.46e5, "Renilla control light, replicate 2": 6.91e5, "outcome": "inactive"}
{"target": "gem (GeneID 36064)", "PubChem SID": "SID104185885", "firefly reporter light, replicate 1": 6.29e5, "firefly reporter light, replicate 2": 5.29e5, "Renilla control light, replicate 1": 1.05e6, "Renilla control light, replicate 2": 7.88e5, "outcome": "inactive"}
{"target": "gem (GeneID 36064)", "PubChem SID": "SID104186639", "firefly reporter light, replicate 1": 2.28e5, "firefly reporter light, replicate 2": 1.77e5, "Renilla control light, replicate 1": 1.24e6, "Renilla control light, replicate 2": 1.11e6, "outcome": "inactive"}
{"target": "polo (GeneID 40232)", "PubChem SID": "SID104191176", "firefly reporter light, replicate 1": 3.02e5, "firefly reporter light, replicate 2": 3.95e5, "Renilla control light, replicate 1": 2.37e6, "Renilla control light, replicate 2": 3.02e6, "outcome": "inactive"}
{"target": "polo (GeneID 40232)", "PubChem SID": "SID104201850", "firefly reporter light, replicate 1": 5.18e5, "firefly reporter light, replicate 2": 4.27e5, "Renilla control light, replicate 1": 1.02e6, "Renilla control light, replicate 2": 9.77e5, "outcome": "inactive"}
{"target": "polo (GeneID 40232)", "PubChem SID": "SID104214577", "outcome": "inactive"}
{"target": "polo (GeneID 40232)", "PubChem SID": "SID104216519", "firefly reporter light, replicate 1": 6.81e5, "firefly reporter light, replicate 2": 5.18e5, "Renilla control light, replicate 1": 1.77e6, "Renilla control light, replicate 2": 1.22e6, "outcome": "inactive"}
{"target": "mGluR (GeneID 43838)", "PubChem SID": "SID104197007", "firefly reporter light, replicate 1": 1.34e5, "firefly reporter light, replicate 2": 2.36e5, "Renilla control light, replicate 1": 2.87e6, "Renilla control light, replicate 2": 2.29e6, "outcome": "inactive"}
{"target": "CG5033 (GeneID 37036)", "PubChem SID": "SID104187202", "firefly reporter light, replicate 1": 1.05e6, "firefly reporter light, replicate 2": 1.04e6, "Renilla control light, replicate 1": 2.19e6, "Renilla control light, replicate 2": 1.73e6, "outcome": "inactive"}
{"target": "CG5033 (GeneID 37036)", "PubChem SID": "SID104206327", "firefly reporter light, replicate 1": 2.61e5, "firefly reporter light, replicate 2": 1.73e5, "Renilla control light, replicate 1": 3.48e5, "Renilla control light, replicate 2": 4.76e5, "outcome": "inactive"}
{"target": "EndoU + CR31292", "PubChem SID": "SID104204705", "firefly reporter light, replicate 1": 2.62e5, "firefly reporter light, replicate 2": 1.77e5, "Renilla control light, replicate 1": 5.98e5, "Renilla control light, replicate 2": 5.45e5, "outcome": "inactive"}

Records listed so far whose target name begins with G or g:
{"target": "gem (GeneID 36064)", "PubChem SID": "SID104185885", "firefly reporter light, replicate 1": 6.29e5, "firefly reporter light, replicate 2": 5.29e5, "Renilla control light, replicate 1": 1.05e6, "Renilla control light, replicate 2": 7.88e5, "outcome": "inactive"}
{"target": "gem (GeneID 36064)", "PubChem SID": "SID104186639", "firefly reporter light, replicate 1": 2.28e5, "firefly reporter light, replicate 2": 1.77e5, "Renilla control light, replicate 1": 1.24e6, "Renilla control light, replicate 2": 1.11e6, "outcome": "inactive"}
